# Measurements reported in PubChem BioAssay AID1347131 (National Center for Advancing Translational Sciences (NCATS), 2019).
# Hit rate of the full screen: of about 410,000 compounds, about 2,000 (0.49%) were called active. The shares of active, inactive and inconclusive entries below differ from those in the screen. Calls come from the whole dose curve; tested in HEK293 reporter line. A potency beside an inconclusive call is a rough fit, not a confirmed value. Bridge positions count the residues as written; N and C are the ends. Square brackets hold non-standard residues; d marks the D form. Peptide text beside a SMILES is read from it.
# Assay: qHTS Assay for Foot and Mouth Disease Virus Antivirals: Primary Screen against the MLPCN compound library; note: nearly all actives have a fitted effect of over 55% in size
# Settings: FMDV antiviral cell-based qHTS; activity, negative = inhibition: at 57.9 µM (top of the series)
# Potency is the fitted concentration of half-maximal effect.
Structure (SMILES),Potency,"activity, negative = inhibition"
Cc1cccc2sc(NC(=O)CN(C)S(=O)(=O)c3cccs3)nc12,"inconclusive: 39.8 µM [inhibitor, partial curve, poor fit]",–
C[C@]12CC(O)C3C(CCC4=CC(=O)CC[C@@]43C)C1CCC2c1csc(-c2ccccc2)n1 (stereo partly drawn),"inconclusive: 3.16 µM [inhibitor, full curve]",–
O=C(CSc1ncnc2[nH]ncc12)Nc1nc(-c2ccc(F)c(F)c2)cs1,"inconclusive: 14.1 µM [inhibitor, partial curve, poor fit]",–
N#CC1c2ccccc2C=CN1C(=O)N(c1ccccc1)c1ccccc1 (stereo not drawn),"inconclusive: 31.6 µM [inhibitor, partial curve, poor fit]",–
Cc1cccc(NC(=O)c2ccc3c(c2)OCCO3)c1,"inconclusive: 17.8 µM [inhibitor, single point]",–
Nc1c(C(=O)Nc2nc3ccccc3s2)sc2nc(-c3cccs3)ccc12,"inconclusive: 39.8 µM [inhibitor, single point]",–
Cc1cc(C(=O)CSc2nc(N)cc(=O)[nH]2)c(C)n1-c1ccc(OC(F)F)cc1,"inconclusive: 3.55 µM [inhibitor, partial curve, poor fit]",–
COc1ccc(/C=C/C(=O)c2ccc([N+](=O)[O-])o2)cc1,"inconclusive: 25.1 µM [inhibitor, partial curve, poor fit]",–
CC[C@H](C)[C@@H]1NC(=O)[C@@H](CC(C)C)NC(=O)[C@H](C(C)C)NC(=O)[C@H]2CSSC[C@H](NC1=O)C(=O)N2 (cyclo(C[dC]V[dL]I); disulfide 1-2),"inconclusive: 6.31 µM [inhibitor, full curve, poor fit]",–
Cc1ccc(-c2csc(Nc3ccc(S(N)(=O)=O)cc3)n2)o1,inactive,–
C=CCn1c(CCNC(=O)c2ccc(Cl)c(Cl)c2)nnc1SCCOc1ccc(OC)cc1,"inconclusive: 28.2 µM [inhibitor, partial curve, poor fit]",–
O=C(Nc1ccccn1)C(F)(F)C(F)(F)C(F)(F)C(F)(F)C(=O)Nc1ccccn1,inactive,–
COc1ccccc1-c1cc(C(F)(F)F)nc(S(=O)(=O)CCCC(=O)N2CCOCC2)n1,"inconclusive: 22.4 µM [inhibitor, partial curve, poor fit]",–
Fc1ccccc1N1CCN(c2cnc3ccccc3n2)CC1,"inconclusive: 12.6 µM [inhibitor, single point]",–
C/C(=C\c1ccccc1)CN1CCC(C(=O)N2CCC(C)CC2)CC1,"inconclusive: 10 µM [inhibitor, partial curve, poor fit]",–
Cn1nnnc1Sc1ncnc2scc(-c3ccsc3)c12,"inconclusive: 15.8 µM [inhibitor, partial curve, poor fit]",–
COc1cc(C(F)(F)F)nc2c(Br)c(C(C)(C)C)nn12,"inconclusive: 20 µM [inhibitor, partial curve]",–
CCOC(=O)c1cc(-c2ccccc2)sc1NC(=S)Nc1cc(C)ccn1,–,inconclusive: -31.9% [inhibitor]
Cc1ccccc1NC(=O)COC(=O)c1ccc(S(C)(=O)=O)c([N+](=O)[O-])c1,"inconclusive: 31.6 µM [inhibitor, single point]",–

Structure (SMILES),Potency,"activity, negative = inhibition"
CC(CC(=O)O)n1nnc2ccccc21 (stereo not drawn),"inconclusive: 1.41 µM [inhibitor, full curve]",–
O=C(Nc1ccc2nc3n(c(=O)c2c1)CCCCC3)c1cccc(C(F)(F)F)c1,inactive,–
CCN1C(=O)/C(=C\c2nc3ccccc3c(=O)n2-c2ccccc2)c2ccccc21,"inconclusive: 14.1 µM [inhibitor, partial curve, poor fit]",–
O=C(CCCCCn1c(=S)[nH]c2cc3c(cc2c1=O)OCO3)N1CCN(Cc2ccccc2)CC1,"inconclusive: 39.8 µM [inhibitor, single point]",–
CC(=O)Oc1ccc2c(c1)OC(c1ccccc1)CC21CC(C)(C)NC(=O)N1 (stereo not drawn),–,inconclusive: -31% [inhibitor]
O=C1C(Cl)=C(N2CCOCC2)C(=O)N1c1ccccc1Cl,"inconclusive: 17.8 µM [inhibitor, single point]",–
Cc1nn2cc(-c3ncc(C(F)(F)F)cc3Cl)cnc2c1Br,active: 8.91 µM,–
O=C(CNc1ccc(F)cc1F)NC(=O)NCc1ccco1,inactive,–
CCCSc1ccc([C@H]2N[C@@](Cc3ccccc3)(C(=O)OC)[C@H]3C(=O)N(CC)C(=O)[C@@H]23)cc1,"inconclusive: 11.2 µM [inhibitor, partial curve]",–
COc1cc(NC(=O)c2ccc3oc(=O)c(S(=O)(=O)c4ccccc4)cc3c2)cc(OC)c1,inactive,–
O=c1[nH]c(=O)n(-c2ccccc2)c2c1C(C(F)(F)F)(C(F)(F)F)N=C(CCC1CCCCC1)N2,"inconclusive: 25.1 µM [inhibitor, partial curve, poor fit]",–
Cc1ccc(-c2nc(-c3ccccc3)no2)cc1,"inconclusive: 11.2 µM [inhibitor, partial curve, poor fit]",–
Cc1cccc(N2C(=O)NC(=O)/C(=C\c3cccn3-c3ccc(Cl)cc3)C2=O)c1,"inconclusive: 10 µM [inhibitor, partial curve, poor fit]",–
CC(=O)c1ccccc1Oc1cc(NN2CCCCC2)c([N+](=O)[O-])cc1[N+](=O)[O-],"inconclusive: 6.31 µM [inhibitor, partial curve, poor fit]",–
CC(C)c1cc(Br)ccc1OCCCN1C(=O)NC(C)(C)C1=O,active: 28.2 µM,–
Cc1ccc(-c2nc(CCNC(=O)c3ccco3)cs2)cc1,inactive,–
CCN1/C(=C2\C(=O)N(C)C(=S)N2c2ccccc2)C=Cc2ccccc21,"inconclusive: 7.94 µM [inhibitor, partial curve, poor fit]",–
O=C(c1cnc2ccccc2n1)N1CCN(c2ccc(C(F)(F)F)cn2)CC1,"inconclusive: 4.47 µM [inhibitor, full curve]",–
O=C(Nc1cc(SCCO)cc([N+](=O)[O-])c1)c1ccc(Br)o1,"inconclusive: 31.6 µM [inhibitor, single point]",–

# Sorted by molar mass (smallest number first): 3 of the compounds above.
Structure (SMILES),Potency,"activity, negative = inhibition"
CCN1/C(=C2\C(=O)N(C)C(=S)N2c2ccccc2)C=Cc2ccccc21,"inconclusive: 7.94 µM [inhibitor, partial curve, poor fit]",–
Cc1cc(C(=O)CSc2nc(N)cc(=O)[nH]2)c(C)n1-c1ccc(OC(F)F)cc1,"inconclusive: 3.55 µM [inhibitor, partial curve, poor fit]",–
C[C@]12CC(O)C3C(CCC4=CC(=O)CC[C@@]43C)C1CCC2c1csc(-c2ccccc2)n1 (stereo partly drawn),"inconclusive: 3.16 µM [inhibitor, full curve]",–
